Data: patent US20120107861A1, “METHOD OF DETERMINING RISK OF ARRHYTHMIA” (priority 2010, published 2012)

Tested on: human iPSC-derived cardiomyocytes (iCells)
Protocol: Cell Culture. hiPSC-derived cardiomyocytes (iCells) from Cellular Dynamics International (CDT) were thawed in Plating Media (CDI and plated as single cells onto 0.1% Gelatin (Sigma)-coated, 6-well tissue-culture plates (Corning) at a density of 2.2−2.7×10^6 cells per well. Cells were cultured for 3-5 d at 37° C., 7% CO2 prior to re-plating onto xCELLigence® 96-well cardio e-plates (ACEA/Roche Applied Sciences) or microelectrode arrays (MEAs, Multichannel Systems). The media was changed every 2 d after plating using Maintenance Media (CDI), pre-warmed to 37° C. to minimize the temperature shock on cells.
xCELLigence® cardio e-plates and MEA Re-plating. iCells cultured in 6-well plates were harvested by twice washing in dPBS (GIBCO) then lifted with 0.5% Trypsin-EDTA (GIBCO), incubated at 37° C., 7% CO2. […] The cells were monitored every 1 h by a 20 s sweep duration by the xCELLigence® RTCA cardio system at its maximum sampling rate (77 Hz) prior to initiating experimentation.
xCELLigence® and MEA Experimentation. […] The xCELLigence® monitored changes to the beating for periodic 20 s sweep durations at 77 Hz.
Data Analysis. Data were first analyzed by the built-in analysis modules of xCELLigence® and MEAs systems, initial results were then exported into in-house developed Microsoft Excel templates for further semi-auto analysis. […]

Cc1cccc(CCN2CCC(C(=O)c3ccc(NS(C)(=O)=O)cc3)CC2)n1 [E-4031]
alterations in beat patterns / arrhythmic beats: erratic impedance changes were observed
